Source: patent US20250281483A1, “TRANSCRIPTION FACTOR EB ACTIVATORS AND USES THEREOF” (Astellas Engineered Small Molecules US, Incorporated, priority 2022, published 2025)
The match of structure and compound is tentative.

By UniProt entry, the sequences of proteins in these tests, tags left out.
UniProt P19484, whole entry: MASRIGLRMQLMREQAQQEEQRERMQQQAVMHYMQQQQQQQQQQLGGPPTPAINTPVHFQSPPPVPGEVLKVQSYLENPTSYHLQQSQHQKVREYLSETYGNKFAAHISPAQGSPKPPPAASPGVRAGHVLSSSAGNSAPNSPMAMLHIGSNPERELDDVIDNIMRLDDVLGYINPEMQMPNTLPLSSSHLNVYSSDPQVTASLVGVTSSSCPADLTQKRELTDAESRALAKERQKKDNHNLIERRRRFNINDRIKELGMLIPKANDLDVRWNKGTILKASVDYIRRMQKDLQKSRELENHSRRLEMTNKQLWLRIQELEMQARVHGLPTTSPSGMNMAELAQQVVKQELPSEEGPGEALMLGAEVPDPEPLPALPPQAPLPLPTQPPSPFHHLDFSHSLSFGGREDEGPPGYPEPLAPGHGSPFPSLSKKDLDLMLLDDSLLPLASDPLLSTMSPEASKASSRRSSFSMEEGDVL

Target: TFEB (Homo sapiens, UniProt P19484)
Assay: Tfeb-Translocation Assay HEK-293T-oEX-Tfeb-GFP Cell Line
Conditions: read-out: TFEB Translocation EC50; HEK-293T-oEX-TFEB-GFP cells; translocation positive cells ratio
Procedure: Tfeb-Translocation Assay HEK-293T-oEX-Tfeb-GFP Cell Line
• 1). Added 2×10^6 cell into a T75 flask with 15 mL DiVEM medium (with 10% FBS, 1% PS, 1×GLUTAMAX, 1×MEM NEAA, 1×HEPES Buffer Solution and 5 ug/mL blasticidin). • 2). Culturing for 48-72 hours. Cells in logarithmic growth phase were taken for experiment. The other cells were passaged as described in step 1. • 3). Seeded 1×10^4 cells/30 μL/well into 384-well plate (BD 356663). Cultured overnight at 37° C. & 5% CO2 incubator. • 4). Note: Used cells <10 passage
• 1). Compounds were firstly diluted by DMSO to the stock needed (10 mM), and aliquoted and stored at −20° C. • 2). Took one aliquot each time and made 3-fold or 2-fold dilutions as indicated, total 10 doses plus one DMSO control well in the source plate. • 3). Added 150 or 90 nL/well compounds solution to the assay plate by ECHO and incubated for 6 or 18 hours respectively at 37° C. & 5% CO2 incubator.
• 1). Added 30 uL 8% PFA into the wells and incubated 20 min at room temperature. • 2). Discarded the medium, washed the wells twice with DPBS to eliminate foam and bubbles in the well.
• 1). […]
• 1). […] Calculated the EGFP average intensity inside the Nucleus region. • 3). […] Selected the Surrounding region of the nucleus and calculated the EGFP mean intensity of the region • 5). […]

O=C(NCc1ccccn1)c1cnc2ccn(Cc3ccccc3)c(=O)c2c1 gave an EC50 greater than 10 µM.
